Source: the supplement of paper PMC6411743
± gives the standard deviation of the averaged measurements. Only a part is listed here, and it is no random draw.

The chains behind the UniProt entries cited, without tags or fusion partners. Where a name states a change or a piece, a line headed by the entry shows the natural chain unless it says otherwise.
UniProt P55347: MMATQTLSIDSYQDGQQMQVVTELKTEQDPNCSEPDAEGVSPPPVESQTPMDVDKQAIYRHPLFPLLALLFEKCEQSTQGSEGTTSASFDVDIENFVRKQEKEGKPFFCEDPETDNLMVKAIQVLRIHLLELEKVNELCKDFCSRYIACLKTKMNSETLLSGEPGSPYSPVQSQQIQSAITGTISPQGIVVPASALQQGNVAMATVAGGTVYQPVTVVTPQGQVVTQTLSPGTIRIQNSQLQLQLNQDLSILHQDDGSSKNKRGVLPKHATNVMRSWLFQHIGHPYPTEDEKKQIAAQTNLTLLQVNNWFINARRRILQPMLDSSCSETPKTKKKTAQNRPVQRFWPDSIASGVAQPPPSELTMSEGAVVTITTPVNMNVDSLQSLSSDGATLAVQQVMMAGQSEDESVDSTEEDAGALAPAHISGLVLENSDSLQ
UniProt P53597: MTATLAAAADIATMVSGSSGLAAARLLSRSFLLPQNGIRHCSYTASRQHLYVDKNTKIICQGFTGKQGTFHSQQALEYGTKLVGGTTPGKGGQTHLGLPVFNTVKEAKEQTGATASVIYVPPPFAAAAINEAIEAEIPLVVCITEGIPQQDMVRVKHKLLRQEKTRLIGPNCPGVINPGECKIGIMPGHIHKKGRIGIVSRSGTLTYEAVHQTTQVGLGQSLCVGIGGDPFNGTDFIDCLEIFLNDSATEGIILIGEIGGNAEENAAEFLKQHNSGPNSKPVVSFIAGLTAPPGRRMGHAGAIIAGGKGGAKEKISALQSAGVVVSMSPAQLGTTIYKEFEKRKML
UniProt P62633: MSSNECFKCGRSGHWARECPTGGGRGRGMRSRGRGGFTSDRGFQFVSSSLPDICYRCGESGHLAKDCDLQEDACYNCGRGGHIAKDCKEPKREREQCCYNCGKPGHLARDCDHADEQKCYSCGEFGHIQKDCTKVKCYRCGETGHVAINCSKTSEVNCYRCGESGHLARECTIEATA
UniProt P83916, whole entry, looked up: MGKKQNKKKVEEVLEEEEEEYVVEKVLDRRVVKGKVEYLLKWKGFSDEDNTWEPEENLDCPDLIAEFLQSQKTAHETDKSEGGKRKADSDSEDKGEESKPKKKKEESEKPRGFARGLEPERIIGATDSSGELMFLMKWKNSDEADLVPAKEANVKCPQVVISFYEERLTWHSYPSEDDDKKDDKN
UniProt P53794: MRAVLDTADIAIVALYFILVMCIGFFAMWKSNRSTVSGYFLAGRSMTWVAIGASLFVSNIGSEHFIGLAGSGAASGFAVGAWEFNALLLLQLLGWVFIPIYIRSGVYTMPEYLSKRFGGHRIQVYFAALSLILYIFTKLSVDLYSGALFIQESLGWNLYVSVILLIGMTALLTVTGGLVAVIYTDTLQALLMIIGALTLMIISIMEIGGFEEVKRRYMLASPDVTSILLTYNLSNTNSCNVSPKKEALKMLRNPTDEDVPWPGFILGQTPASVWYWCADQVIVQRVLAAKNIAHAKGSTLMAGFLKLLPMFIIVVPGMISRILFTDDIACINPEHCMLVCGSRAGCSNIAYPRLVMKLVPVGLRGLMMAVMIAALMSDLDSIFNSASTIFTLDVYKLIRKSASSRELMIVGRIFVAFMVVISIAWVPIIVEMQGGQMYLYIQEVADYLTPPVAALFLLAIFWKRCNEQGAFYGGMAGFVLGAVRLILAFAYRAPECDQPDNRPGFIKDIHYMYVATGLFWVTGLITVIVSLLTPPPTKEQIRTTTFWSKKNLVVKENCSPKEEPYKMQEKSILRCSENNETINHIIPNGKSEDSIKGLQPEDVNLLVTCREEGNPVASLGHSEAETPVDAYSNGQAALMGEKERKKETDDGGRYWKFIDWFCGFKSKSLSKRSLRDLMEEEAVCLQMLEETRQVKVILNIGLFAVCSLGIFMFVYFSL
UniProt P53367: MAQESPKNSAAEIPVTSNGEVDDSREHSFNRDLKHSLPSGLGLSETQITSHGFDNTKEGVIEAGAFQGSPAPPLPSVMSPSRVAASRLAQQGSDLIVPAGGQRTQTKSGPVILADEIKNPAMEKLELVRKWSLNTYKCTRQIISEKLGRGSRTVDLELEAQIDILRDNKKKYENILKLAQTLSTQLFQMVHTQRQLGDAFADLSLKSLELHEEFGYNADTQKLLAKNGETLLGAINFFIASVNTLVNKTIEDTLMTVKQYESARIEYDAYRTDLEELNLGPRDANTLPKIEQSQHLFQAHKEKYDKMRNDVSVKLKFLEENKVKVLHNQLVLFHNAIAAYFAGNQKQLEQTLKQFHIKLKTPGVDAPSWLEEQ
UniProt P55957: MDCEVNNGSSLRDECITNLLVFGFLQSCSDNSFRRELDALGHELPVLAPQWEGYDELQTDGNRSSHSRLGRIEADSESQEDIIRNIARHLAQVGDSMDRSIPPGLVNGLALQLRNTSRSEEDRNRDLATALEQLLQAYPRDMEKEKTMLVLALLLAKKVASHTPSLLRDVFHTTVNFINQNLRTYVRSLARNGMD
UniProt P63172, whole entry: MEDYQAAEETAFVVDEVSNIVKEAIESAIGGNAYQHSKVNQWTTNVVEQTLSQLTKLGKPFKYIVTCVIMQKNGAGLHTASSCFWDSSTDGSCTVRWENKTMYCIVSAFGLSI
UniProt P62318, whole entry: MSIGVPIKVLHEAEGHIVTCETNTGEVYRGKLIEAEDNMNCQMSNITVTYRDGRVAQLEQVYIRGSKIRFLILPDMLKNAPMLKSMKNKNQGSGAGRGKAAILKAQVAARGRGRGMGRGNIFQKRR
UniProt P61956, whole entry: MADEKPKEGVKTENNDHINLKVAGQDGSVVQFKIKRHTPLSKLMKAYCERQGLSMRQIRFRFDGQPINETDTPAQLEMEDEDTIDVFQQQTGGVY
UniProt P54619: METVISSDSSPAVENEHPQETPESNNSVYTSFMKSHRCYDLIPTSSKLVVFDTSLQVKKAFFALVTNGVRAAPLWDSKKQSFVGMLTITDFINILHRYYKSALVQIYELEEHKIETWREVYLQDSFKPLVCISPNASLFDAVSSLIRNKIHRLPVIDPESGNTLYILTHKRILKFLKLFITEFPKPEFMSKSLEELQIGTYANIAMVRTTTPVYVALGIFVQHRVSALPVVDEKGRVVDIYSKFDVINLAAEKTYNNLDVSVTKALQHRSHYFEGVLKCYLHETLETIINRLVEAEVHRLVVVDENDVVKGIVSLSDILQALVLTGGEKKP
UniProt P56524: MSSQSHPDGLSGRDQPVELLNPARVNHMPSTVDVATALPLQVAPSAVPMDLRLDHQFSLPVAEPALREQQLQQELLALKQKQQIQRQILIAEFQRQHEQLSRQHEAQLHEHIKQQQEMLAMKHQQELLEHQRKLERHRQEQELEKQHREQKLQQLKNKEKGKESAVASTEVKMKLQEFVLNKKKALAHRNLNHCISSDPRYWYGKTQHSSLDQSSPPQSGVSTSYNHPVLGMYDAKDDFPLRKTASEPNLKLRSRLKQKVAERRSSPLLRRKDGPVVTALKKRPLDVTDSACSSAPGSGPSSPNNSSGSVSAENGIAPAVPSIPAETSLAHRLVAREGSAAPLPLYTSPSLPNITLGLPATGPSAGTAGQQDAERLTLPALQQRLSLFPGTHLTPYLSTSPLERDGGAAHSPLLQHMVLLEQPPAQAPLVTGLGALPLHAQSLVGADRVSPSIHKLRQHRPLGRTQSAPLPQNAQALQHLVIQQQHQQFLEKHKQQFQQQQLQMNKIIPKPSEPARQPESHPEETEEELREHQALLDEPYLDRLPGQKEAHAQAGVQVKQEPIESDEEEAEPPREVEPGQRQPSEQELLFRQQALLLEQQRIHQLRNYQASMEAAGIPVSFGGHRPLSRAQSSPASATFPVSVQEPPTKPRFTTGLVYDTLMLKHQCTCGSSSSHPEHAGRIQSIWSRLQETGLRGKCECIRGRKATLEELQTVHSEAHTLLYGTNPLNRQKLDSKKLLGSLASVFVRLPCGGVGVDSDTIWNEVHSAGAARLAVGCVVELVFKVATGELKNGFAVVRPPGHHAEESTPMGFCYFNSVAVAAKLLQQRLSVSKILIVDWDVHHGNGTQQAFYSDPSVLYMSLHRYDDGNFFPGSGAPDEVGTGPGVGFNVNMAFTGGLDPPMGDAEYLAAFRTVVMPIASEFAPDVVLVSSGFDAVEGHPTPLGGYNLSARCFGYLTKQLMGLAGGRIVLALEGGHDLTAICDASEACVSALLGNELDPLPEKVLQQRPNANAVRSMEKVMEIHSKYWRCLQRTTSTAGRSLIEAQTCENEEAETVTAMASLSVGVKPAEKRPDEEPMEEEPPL
UniProt P54098: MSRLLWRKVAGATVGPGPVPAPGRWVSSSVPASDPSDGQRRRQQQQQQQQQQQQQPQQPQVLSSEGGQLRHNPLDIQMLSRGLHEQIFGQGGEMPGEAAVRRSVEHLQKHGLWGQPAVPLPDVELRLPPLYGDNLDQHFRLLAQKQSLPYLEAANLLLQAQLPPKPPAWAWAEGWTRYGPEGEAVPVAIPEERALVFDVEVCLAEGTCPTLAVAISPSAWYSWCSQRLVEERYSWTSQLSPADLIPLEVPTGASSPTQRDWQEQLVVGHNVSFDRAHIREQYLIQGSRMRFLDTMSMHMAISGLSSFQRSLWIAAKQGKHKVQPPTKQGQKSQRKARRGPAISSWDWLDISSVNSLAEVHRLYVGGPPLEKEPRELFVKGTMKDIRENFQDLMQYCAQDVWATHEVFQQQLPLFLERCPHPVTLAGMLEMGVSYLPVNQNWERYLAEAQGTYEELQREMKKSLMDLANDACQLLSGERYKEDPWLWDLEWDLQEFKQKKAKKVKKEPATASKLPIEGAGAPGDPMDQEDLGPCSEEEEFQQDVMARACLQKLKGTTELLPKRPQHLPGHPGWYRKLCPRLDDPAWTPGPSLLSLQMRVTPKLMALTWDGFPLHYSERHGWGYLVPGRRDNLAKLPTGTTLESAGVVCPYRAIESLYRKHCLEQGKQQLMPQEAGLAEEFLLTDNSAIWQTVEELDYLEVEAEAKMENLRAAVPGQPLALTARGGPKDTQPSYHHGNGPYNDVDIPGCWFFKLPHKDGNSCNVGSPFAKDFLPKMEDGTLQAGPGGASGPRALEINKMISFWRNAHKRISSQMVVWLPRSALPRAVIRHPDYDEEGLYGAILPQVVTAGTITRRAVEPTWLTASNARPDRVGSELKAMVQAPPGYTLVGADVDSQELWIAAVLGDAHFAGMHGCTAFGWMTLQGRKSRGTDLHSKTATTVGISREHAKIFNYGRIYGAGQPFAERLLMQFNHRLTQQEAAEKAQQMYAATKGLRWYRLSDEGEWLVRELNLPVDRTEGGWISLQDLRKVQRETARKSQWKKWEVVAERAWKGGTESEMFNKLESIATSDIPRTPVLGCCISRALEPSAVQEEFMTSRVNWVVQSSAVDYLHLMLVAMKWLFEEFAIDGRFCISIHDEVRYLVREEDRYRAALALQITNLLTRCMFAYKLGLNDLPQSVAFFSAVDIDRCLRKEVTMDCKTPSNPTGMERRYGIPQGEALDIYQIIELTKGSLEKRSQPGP
UniProt P55010, whole entry: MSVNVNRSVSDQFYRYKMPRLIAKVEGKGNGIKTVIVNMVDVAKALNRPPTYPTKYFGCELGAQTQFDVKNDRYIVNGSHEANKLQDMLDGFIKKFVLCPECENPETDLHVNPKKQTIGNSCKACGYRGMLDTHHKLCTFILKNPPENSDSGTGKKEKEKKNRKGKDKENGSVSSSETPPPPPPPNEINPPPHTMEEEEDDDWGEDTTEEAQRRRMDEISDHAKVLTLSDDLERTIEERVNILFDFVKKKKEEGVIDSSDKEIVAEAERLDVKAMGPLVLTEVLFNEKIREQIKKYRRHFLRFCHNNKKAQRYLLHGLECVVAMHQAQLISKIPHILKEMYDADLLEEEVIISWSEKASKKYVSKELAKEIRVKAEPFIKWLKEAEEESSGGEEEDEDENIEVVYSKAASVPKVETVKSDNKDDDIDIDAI
UniProt P56589: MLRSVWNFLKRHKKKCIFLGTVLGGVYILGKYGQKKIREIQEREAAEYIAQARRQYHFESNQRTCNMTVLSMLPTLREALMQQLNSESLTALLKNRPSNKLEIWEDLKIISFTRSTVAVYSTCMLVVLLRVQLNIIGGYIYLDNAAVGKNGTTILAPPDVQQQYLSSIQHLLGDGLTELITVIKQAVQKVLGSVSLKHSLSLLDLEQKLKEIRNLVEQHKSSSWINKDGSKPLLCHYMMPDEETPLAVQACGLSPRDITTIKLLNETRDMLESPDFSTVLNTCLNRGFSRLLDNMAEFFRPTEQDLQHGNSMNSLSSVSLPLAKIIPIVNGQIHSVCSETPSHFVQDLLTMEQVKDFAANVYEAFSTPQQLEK
UniProt P55771: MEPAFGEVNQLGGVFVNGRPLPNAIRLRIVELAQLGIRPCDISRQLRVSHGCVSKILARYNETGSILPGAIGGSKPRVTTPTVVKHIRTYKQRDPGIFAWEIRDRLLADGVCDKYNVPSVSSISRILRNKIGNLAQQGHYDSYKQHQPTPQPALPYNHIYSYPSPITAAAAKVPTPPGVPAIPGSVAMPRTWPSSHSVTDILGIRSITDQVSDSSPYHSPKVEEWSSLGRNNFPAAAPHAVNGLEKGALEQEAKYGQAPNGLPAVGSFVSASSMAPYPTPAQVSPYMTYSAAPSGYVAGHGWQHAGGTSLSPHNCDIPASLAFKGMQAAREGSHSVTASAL

Compound: Nc1ncnc2c1ncn2[C@@H]1O[C@H](COP(=O)(O)OP(=O)(O)OP(=O)(O)O)[C@@H](O)[C@H]1O [adenosine triphosphate]
Experiment: NP40-soluble protein abundance relative to vehicle (solubility fold change) (ratio); higher = more soluble protein in presence of ATP
How it was run: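 Jurkat crude lysate prepared with a Dounce homogeniser was treated at eight concentrations spanning 0.1 to 10 mM, 10 min at room temperature then 3 min at 37 °C. Solubilisation with 0.8% NP40 and benzonase and ultracentrifugation preceded TMT labelling of the supernatant for LC-MS/MS. Fold change against the detergent-processed vehicle was determined per replicate from vsn-normalised intensities, across three independent experiments.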

Target	NP40-soluble protein abundance (concentration: 1mM)	NP40-soluble protein abundance (concentration: 2mM)	NP40-soluble protein abundance (concentration: 4mM)	NP40-soluble protein abundance (concentration: 6mM)	NP40-soluble protein abundance (concentration: 8mM)	NP40-soluble protein abundance (concentration: 10mM)
UniProt P78310 and related entries	0.944 ± 0.039	0.977 ± 0.037	0.952 ± 0.061	0.977 ± 0.048	0.9334 ± 0.0072	0.893 ± 0.053
UniProt P98155 and related entries	0.95 ± 0.041	0.978 ± 0.019	0.954 ± 0.039	0.977 ± 0.012	0.964 ± 0.026	0.9518 ± 0.0075
S100A10 (UniProt P60903)	0.911 ± 0.064	0.884 ± 0.063	0.836 ± 0.086	0.881 ± 0.083	0.861 ± 0.032	0.795 ± 0.13
CLNS1A (UniProt P54105)	0.934 ± 0.1	0.933 ± 0.06	0.949 ± 0.054	0.954 ± 0.092	0.925 ± 0.03	0.854 ± 0.082
UniProt P55884 and related entries	1 ± 0.062	1.05 ± 0.053	1.14 ± 0.033	1.18 ± 0.025	1.42 ± 0.064	1.56 ± 0.057
UniProt P55347 and related entries	0.979 ± 0.07	0.989 ± 0.066	0.992 ± 0.063	1.011 ± 0.0084	1 ± 0.074	0.946 ± 0.066
UniProt P62277	0.891 ± 0.059	0.809 ± 0.11	0.783 ± 0.18	0.711 ± 0.13	0.719 ± 0.13	0.81 ± 0.15
PCBD1 (UniProt P61457)	0.9532 ± 0.0054	0.896 ± 0.025	0.92 ± 0.022	0.861 ± 0.052	0.879 ± 0.019	0.842 ± 0.037
HCCS (UniProt P53701)	1.02 ± 0.046	0.966 ± 0.041	0.947 ± 0.023	0.952 ± 0.053	0.957 ± 0.015	0.931 ± 0.041
SUCLG1 (UniProt P53597)	0.971 ± 0.018	0.954 ± 0.018	0.901 ± 0.022	0.988 ± 0.033	0.9458 ± 0.0091	0.94 ± 0.02
MFAP1 (UniProt P55081)	1.02 ± 0.084	1.01 ± 0.042	0.921 ± 0.044	0.957 ± 0.051	0.875 ± 0.023	0.887 ± 0.049
UniProt P61254	0.915 ± 0.18	0.86 ± 0.16	0.803 ± 0.17	0.786 ± 0.17	0.645 ± 0.2	0.842 ± 0.15
UniProt P62633 and related entries	1.01 ± 0.021	0.979 ± 0.047	0.99 ± 0.028	1.01 ± 0.028	1.01 ± 0.044	0.965 ± 0.059
UniProt P62280	0.87 ± 0.066	0.782 ± 0.13	0.719 ± 0.13	0.705 ± 0.15	0.652 ± 0.14	0.727 ± 0.12
RPS27A (UniProt P62979)	0.813 ± 0.14	0.803 ± 0.17	0.747 ± 0.16	0.758 ± 0.19	0.647 ± 0.12	0.767 ± 0.14
MLLT10 (UniProt P55197)	1.04 ± 0.1	1.11 ± 0.31	1.28 ± 0.28	1.25 ± 0.39	1.29 ± 0.15	1.3 ± 0.23
UniProt P62829	0.957 ± 0.055	0.898 ± 0.099	0.866 ± 0.11	0.812 ± 0.08	0.741 ± 0.11	0.834 ± 0.068
UniProt P78527	1.21 ± 0.15	1.15 ± 0.097	1.15 ± 0.06	1.07 ± 0.08	1.25 ± 0.03	1.17 ± 0.062
UniProt P83916	1.04 ± 0.099	1 ± 0.043	1.01 ± 0.064	1.01 ± 0.042	1.01 ± 0.021	0.972 ± 0.017
RAD23B (UniProt P54727)	0.894 ± 0.11	0.896 ± 0.059	0.867 ± 0.073	0.929 ± 0.095	0.861 ± 0.014	0.812 ± 0.068

Target	NP40-soluble protein abundance (concentration: 1mM)	NP40-soluble protein abundance (concentration: 2mM)	NP40-soluble protein abundance (concentration: 4mM)	NP40-soluble protein abundance (concentration: 6mM)	NP40-soluble protein abundance (concentration: 8mM)	NP40-soluble protein abundance (concentration: 10mM)
SUB1 (UniProt P53999)	0.843 ± 0.14	0.851 ± 0.1	0.744 ± 0.17	0.95 ± 0.095	0.876 ± 0.015	0.778 ± 0.2
SLC5A3 (UniProt P53794)	0.992 ± 0.11	0.946 ± 0.081	1.09 ± 0.22	1.01 ± 0.048	0.952 ± 0.073	1.04 ± 0.042
UniProt P61966	0.922 ± 0.054	1.03 ± 0.02	0.99 ± 0.042	1.02 ± 0.12	0.976 ± 0.061	0.973 ± 0.037
UniProt P53367 and related entries	0.965 ± 0.029	0.974 ± 0.016	0.962 ± 0.018	0.952 ± 0.022	0.959 ± 0.038	0.916 ± 0.027
UniProt P68366 and related entries	1 ± 0.13	1.01 ± 0.12	0.976 ± 0.17	0.991 ± 0.17	0.997 ± 0.2	0.974 ± 0.11
UniProt P62263	0.985 ± 0.04	0.955 ± 0.055	0.911 ± 0.078	0.908 ± 0.082	0.787 ± 0.065	0.899 ± 0.067
ACTR3 (UniProt P61158)	0.952 ± 0.17	1.14 ± 0.24	1.02 ± 0.1	0.948 ± 0.021	1.09 ± 0.11	1 ± 0.037
UniProt P54886 and related entries	0.993 ± 0.066	0.996 ± 0.053	0.978 ± 0.052	0.935 ± 0.073	1 ± 0.035	0.986 ± 0.048
UniProt P53384 and related entries	0.98 ± 0.035	0.942 ± 0.016	0.928 ± 0.031	0.964 ± 0.056	0.883 ± 0.032	0.914 ± 0.038
HIRA (UniProt P54198)	1.06 ± 0.053	1.04 ± 0.06	1 ± 0.085	1.07 ± 0.15	1.06 ± 0.057	1.2 ± 0.098
UniProt P62495	1.01 ± 0.095	0.993 ± 0.072	0.968 ± 0.078	0.951 ± 0.13	1.03 ± 0.081	0.971 ± 0.057
MRPS10 (UniProt P82664)	1.09 ± 0.073	0.984 ± 0.1	0.961 ± 0.17	0.897 ± 0.21	1.02 ± 0.22	0.861 ± 0.13
UniProt P55957 and related entries	1.02 ± 0.12	0.97 ± 0.025	0.995 ± 0.047	1 ± 0.12	0.99 ± 0.044	0.865 ± 0.082
UniProt P62249	0.848 ± 0.043	0.774 ± 0.1	0.748 ± 0.099	0.689 ± 0.089	0.65 ± 0.096	0.709 ± 0.092
MRPS6 (UniProt P82932)	0.931 ± 0.12	0.873 ± 0.092	0.81 ± 0.088	0.838 ± 0.22	0.856 ± 0.13	0.769 ± 0.13
POLR2K (UniProt P53803)	1.02 ± 0.12	1.03 ± 0.049	1.08 ± 0.11	1.02 ± 0.051	1.02 ± 0.082	1.12 ± 0.083
DYNLT1 (UniProt P63172)	0.972 ± 0.065	1.02 ± 0.045	0.918 ± 0.047	1.03 ± 0.16	1 ± 0.13	0.985 ± 0.09
UniProt P67936 and related entries	1.07 ± 0.083	1.11 ± 0.15	1.21 ± 0.066	1.41 ± 0.15	1.51 ± 0.3	1.06 ± 0.51
UniProt P61981	1.09 ± 0.32	0.8 ± 0.18	1.03 ± 0.2	0.797 ± 0.2	0.937 ± 0.058	0.721 ± 0.17
UniProt P62318 and related entries	1.14 ± 0.1	1.14 ± 0.082	1.16 ± 0.097	1.36 ± 0.13	1.34 ± 0.13	1.38 ± 0.11

Target	NP40-soluble protein abundance (concentration: 1mM)	NP40-soluble protein abundance (concentration: 2mM)	NP40-soluble protein abundance (concentration: 4mM)	NP40-soluble protein abundance (concentration: 6mM)	NP40-soluble protein abundance (concentration: 8mM)	NP40-soluble protein abundance (concentration: 10mM)
UniProt P61956	0.964 ± 0.13	0.912 ± 0.041	0.9 ± 0.019	0.914 ± 0.07	0.834 ± 0.097	0.819 ± 0.095
UniProt P82912 and related entries	1.05 ± 0.026	1 ± 0.1	0.962 ± 0.087	0.97 ± 0.15	0.95 ± 0.084	0.939 ± 0.13
PMS2 (UniProt P54278)	1.18 ± 0.04	1.15 ± 0.035	1.21 ± 0.047	1.15 ± 0.011	1.17 ± 0.045	1.17 ± 0.042
UniProt P56202 and related entries	0.996 ± 0.068	0.969 ± 0.044	0.948 ± 0.046	1.02 ± 0.071	0.974 ± 0.062	0.955 ± 0.034
UniProt P54619 and related entries	1.06 ± 0.18	0.97 ± 0.053	0.96 ± 0.034	0.934 ± 0.15	1.02 ± 0.042	0.999 ± 0.033
DCD (UniProt P81605)	1.22 ± 0.16	1.3 ± 0.23	1.04 ± 0.015	1.16 ± 0.14	0.958 ± 0.19	0.892 ± 0.34
CEBPG (UniProt P53567)	1.03 ± 0.15	1.03 ± 0.22	1.04 ± 0.13	1.14 ± 0.19	0.893 ± 0.043	0.975 ± 0.07
UniProt P84022	0.988 ± 0.076	1.01 ± 0.05	1.04 ± 0.06	1.05 ± 0.017	1.01 ± 0.056	1.06 ± 0.038
HDAC4 (UniProt P56524)	0.975 ± 0.019	0.979 ± 0.086	0.974 ± 0.015	0.975 ± 0.029	0.921 ± 0.065	0.935 ± 0.044
MAT1A (UniProt Q00266)	1.01 ± 0.14	0.986 ± 0.11	1.02 ± 0.11	0.971 ± 0.14	1.01 ± 0.099	0.977 ± 0.1
POLG (UniProt P54098)	1.01 ± 0.067	0.982 ± 0.024	1.01 ± 0.069	0.969 ± 0.07	1.01 ± 0.041	0.984 ± 0.025
TMSB4X (UniProt P62328)	0.949 ± 0.27	0.699 ± 0.064	0.826 ± 0.14	0.892 ± 0.096	0.741 ± 0.071	0.747 ± 0.11
UniProt P62244 and related entries	0.882 ± 0.054	0.795 ± 0.03	0.704 ± 0.046	0.693 ± 0.047	0.653 ± 0.12	0.688 ± 0.073
EIF5 (UniProt P55010)	1 ± 0.057	0.99 ± 0.028	0.962 ± 0.025	1.03 ± 0.035	0.964 ± 0.015	0.963 ± 0.032
UniProt P63151	1.02 ± 0.067	1 ± 0.066	0.989 ± 0.065	0.958 ± 0.063	1.01 ± 0.064	0.989 ± 0.071
UniProt P63220 and related entries	0.882 ± 0.18	0.835 ± 0.19	0.77 ± 0.17	0.822 ± 0.21	0.659 ± 0.13	0.691 ± 0.15
UniProt P63000 and related entries	0.984 ± 0.045	0.995 ± 0.075	0.962 ± 0.094	0.937 ± 0.075	0.994 ± 0.1	0.977 ± 0.041
PEX3 (UniProt P56589)	1.015 ± 0.0073	1.02 ± 0.03	0.982 ± 0.012	0.981 ± 0.084	0.986 ± 0.05	0.966 ± 0.013
UniProt P78563 and related entries	1.04 ± 0.044	1.09 ± 0.051	1.07 ± 0.081	1.08 ± 0.1	1.11 ± 0.11	1.11 ± 0.082
UniProt P55771	0.83 ± 0.17	0.862 ± 0.15	0.838 ± 0.088	0.916 ± 0.15	0.909 ± 0.17	0.877 ± 0.17

Taken from the results shown (11 entries):
Target	NP40-soluble protein abundance (concentration: 1mM)	NP40-soluble protein abundance (concentration: 2mM)	NP40-soluble protein abundance (concentration: 4mM)	NP40-soluble protein abundance (concentration: 6mM)	NP40-soluble protein abundance (concentration: 8mM)	NP40-soluble protein abundance (concentration: 10mM)
MRPS10 (UniProt P82664)	1.09 ± 0.073	0.984 ± 0.1	0.961 ± 0.17	0.897 ± 0.21	1.02 ± 0.22	0.861 ± 0.13
UniProt P55957 and related entries	1.02 ± 0.12	0.97 ± 0.025	0.995 ± 0.047	1 ± 0.12	0.99 ± 0.044	0.865 ± 0.082
UniProt P62249	0.848 ± 0.043	0.774 ± 0.1	0.748 ± 0.099	0.689 ± 0.089	0.65 ± 0.096	0.709 ± 0.092
MRPS6 (UniProt P82932)	0.931 ± 0.12	0.873 ± 0.092	0.81 ± 0.088	0.838 ± 0.22	0.856 ± 0.13	0.769 ± 0.13
POLR2K (UniProt P53803)	1.02 ± 0.12	1.03 ± 0.049	1.08 ± 0.11	1.02 ± 0.051	1.02 ± 0.082	1.12 ± 0.083
DYNLT1 (UniProt P63172)	0.972 ± 0.065	1.02 ± 0.045	0.918 ± 0.047	1.03 ± 0.16	1 ± 0.13	0.985 ± 0.09
UniProt P67936 and related entries	1.07 ± 0.083	1.11 ± 0.15	1.21 ± 0.066	1.41 ± 0.15	1.51 ± 0.3	1.06 ± 0.51
UniProt P61981	1.09 ± 0.32	0.8 ± 0.18	1.03 ± 0.2	0.797 ± 0.2	0.937 ± 0.058	0.721 ± 0.17
UniProt P62318 and related entries	1.14 ± 0.1	1.14 ± 0.082	1.16 ± 0.097	1.36 ± 0.13	1.34 ± 0.13	1.38 ± 0.11
UniProt P61956	0.964 ± 0.13	0.912 ± 0.041	0.9 ± 0.019	0.914 ± 0.07	0.834 ± 0.097	0.819 ± 0.095
UniProt P82912 and related entries	1.05 ± 0.026	1 ± 0.1	0.962 ± 0.087	0.97 ± 0.15	0.95 ± 0.084	0.939 ± 0.13
